In PubChem BioAssay AID504408 (Broad Institute, 2011):
Among all 300,000 compounds or so, about 5,200 (1.7%) were called active. Inconclusive means that the source gave no clear call. Such entries were picked first, then a sample of the others.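 How the source made its calls: active means mean replicate activation of at least 50% with a set share of replicates each reaching 50%; inconclusive means only one of those two conditions met; inactive means mean below 50% and too few replicates reaching it.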

experiment: HSF-1 activators, primary screen, NIH3T3-HGL cells, MG132 stress, luminescence, single point (AID 504408); conditions: NIH3T3-HGL HSF-1 luciferase reporter, MG132, 8 h; at 9 µM; stronger effect = higher value; 100% = twice DMSO control signal;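 further: 0% = median of the neutral control wells and 100% = twice that signal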

activation, inactive:
O=C(Nn1c(-c2ccccc2)nc2ccccc2c1=O)c1ccc([N+](=O)[O-])cc1 19.1%
Cc1cccc(N(CC(=O)NCC2CCCO2)C(=O)CCC(=O)Nc2nccs2)c1 (stereo not drawn) -10.6%
COc1ccc(C(=O)CCN2CCN(c3ccc(OC)cc3)CC2)cc1 13.3%
CCCn1cc(S(=O)(=O)c2ccccc2)c(=O)c2cc(OCC)ccc21 16%
CC(=O)N1c2ccc(S(=O)(=O)NCC3CCC(C(=O)Nc4cccc(C)n4)CC3)cc2CC1C (stereo not drawn) -3.41%
CCOC(=O)C1=NNC(C(=O)c2ccc(C)cc2)C1c1ccc(OC)cc1 (stereo not drawn) 20.5%
CC(Sc1nccn1C)C(=O)Nc1ccc(Cl)cn1 (stereo not drawn) -0.877%
O=C(CSc1ccc(-c2cccs2)nn1)N1CCCCCC1 20.2%
NC(=O)c1ccc(NC(=O)c2ccc(CN3CCOCC3)cc2)cc1 -4.32%
Nc1nc2ncc(CNc3ccc(C(=O)N[C@@H](CCC(=O)O)C(=O)O)cc3)nc2c(=O)[nH]1 1.77%
O=C(NC1CCN(C(=O)NCc2ccccc2)CC1)c1ccccc1 6.03%
CC(=O)N1N=C(c2ccc(C)cc2)CC1c1ccc2c(c1)OCO2 (stereo not drawn) 42.5%
O=C(Nc1ccc(S(=O)(=O)NC2=NCCCCC2)cc1)C1COc2ccccc2O1 (stereo not drawn) -43.3%
Cc1ccc(N(CC2CO2)S(=O)(=O)c2ccc([N+](=O)[O-])cc2)cc1 (stereo not drawn) 8.79%
CCCc1c(C(=O)Nc2ccc(C(F)(F)F)cc2)cnn1-c1ccccc1 16.7%
COc1ccc(Cn2c(O)c(C=Nc3ccc(O)cc3)c3ccccc3c2=O)cc1 25.5%
Cc1ccsc1C(=O)OCc1nc2ccccc2c(=O)[nH]1 -6.14%
Cc1ccc(-c2ccc(CCC(=O)O)n2NC(=O)c2ccco2)cc1 1.85%
CCN(CC)CCNC(=S)Nc1ccc2nc(N3CCN(CC)CC3)cc(C)c2c1 -3.03%
COc1ccc(C(C(=O)NC2CCCC2)N(C(=O)c2snc(-c3ccc(F)cc3)c2N)c2cccc(F)c2)cc1 (stereo not drawn) 13.6%
Cc1ccc(-c2ccc(CCC(=O)O)n2-c2ccc(C(=O)O)cc2)cc1 -5.09%

activation, inconclusive:
O=C(N/N=C/C=C/c1ccccc1)c1cccs1 51.9%
O=C(CCN1C(=O)c2ccccc2C1=O)Nc1sc2c(c1C(=O)NCC1CCCO1)CCC2 (stereo not drawn) 50%
CCn1c(=O)c(C(=O)NNC(=O)Cc2ccccc2)c(O)c2ccccc21 51%
COC(=O)c1c(NC(=O)C2CC=CCC2C(=O)O)sc2c1CCCCC2 (stereo not drawn) 55.5%
S=C(NCc1ccco1)N/N=C/c1ccccc1Cl 50.2%
CC(=O)Nc1cccc(-n2nnc(SCC(=O)Nc3ccc(F)c(Cl)c3)n2)c1 55.2%
C=CCn1c(C2CCCCC2)n[nH]c1=S 55%
COc1cccc(OCCn2cc(C=O)c3ccccc32)c1 53.1%
CNC(=O)COC(=O)c1ccccc1C(=O)c1ccc(Cl)c([N+](=O)[O-])c1 106%
O=S(=O)(c1cccc(Cl)c1)N1CCC(c2nc3ccccc3[nH]2)CC1 50.5%
CCc1ccc(C(=O)NCc2ccc(Cl)cc2Cl)cc1 50.2%
CN(CCO)c1cc(Sc2nc3ccccc3s2)c2nonc2c1[N+](=O)[O-] 62.3%
CSc1nc(S(=O)(=O)c2ccc(C)cc2)c(Cl)s1 53.6%
CCOC(=O)c1sc(Nc2nc3c(F)cccc3s2)cc1C 54.3%
CSC(=S)N/N=C/c1ccc(N(C)C)cc1 52%
CCCC(C(=O)NCc1ccco1)N(C(=O)CNS(=O)(=O)c1ccc(Cl)cc1)C1CCCC1 (stereo not drawn) 50.8%
COc1ccccc1NC(=O)C1=C(C)NC(SCC(=O)c2ccccc2)=C(C#N)C1c1ccco1 (stereo not drawn) 51.2%
CCC(c1nnnn1Cc1ccco1)N(CCc1ccccc1)Cc1cc2cccc(C)c2[nH]c1=O (stereo not drawn) 51.4%
O=C(/C=C/c1cc(Br)ccc1O)c1ccco1 50.4%
Cc1ccc(-c2nnc(-c3ccccc3Br)o2)cc1 55%
Cc1ccc(/C(O)=C/c2nc3ccccc3oc2=O)cc1 51.8%
CC1CC(=O)N(c2ccc(Br)cc2)C(=O)C1 53.7%
COc1ccc(S(=O)(=O)N2CCC(C(=O)NCc3cccnc3)CC2)cc1C 52.6%
COC(=O)c1sccc1-c1ccc(C(=O)Nc2ccccc2)o1 51.9%
Cc1c(C(=O)NNC(=S)Nc2cccc(Cl)c2)nnn1-c1ccccc1 50%
C=C1CC(C(=O)N/N=C/c2ccccc2)C1 50.7%
COc1cccc2cc(C(=O)c3ccc([N+](=O)[O-])cc3)oc12 51.5%
COc1cccc(C(=O)Nc2cc(C(=O)NCCc3ccccc3)ccc2Cl)c1 51.9%
O=C1C(C=NCc2ccccn2)=C(O)c2ccccc21 51.8%
COc1ccc(NC(=S)Nc2ccc3nsnc3c2)cc1 56.6%
COc1ccc(-c2csc(Nc3ncccc3C)n2)cc1 50.5%
COc1cccc(CN(C)C(=O)c2cc(COc3c(F)cccc3F)on2)c1 56%
CN(C)c1ccc(/C=N/OC(=O)Nc2ccccc2)cc1 53.9%
Cn1c(CN2CCN(c3cccc(Cl)c3)CC2)nc2ccccc21 50.1%
CC(=O)Cc1nsc(Nc2ccc3c(c2)OCCO3)n1 50.6%
S=c1[nH]nc(C2CCCCC2)n1/N=C/C(Cl)=C\c1ccccc1 51.4%
Clc1ccccc1-c1ncc(-c2ccccc2)o1 50.6%
Cc1ccc(S(=O)(=O)n2cnc3ccccc32)cc1[N+](=O)[O-] 50%
O=C(Nc1nccs1)c1ccc2ccccc2n1 50.8%
Cc1cc(=O)oc2cc(OCC(=O)Nc3nccs3)ccc12 52.5%
CCCOC(=O)CSc1nc(N)c(C#N)c(-c2ccco2)c1C#N 50.2%
CC(c1ccccc1)N1CC(C(=O)N2CCN(c3ccc(F)cc3)CC2)CC1=O (stereo not drawn) 50.5%
O=C(Nc1ccccc1C(F)(F)F)c1cc2ccccc2o1 52.1%
O=C(NC(=S)NC1CCCCC1)c1ccc(Cl)cc1 52.2%
c1ccc(CSc2nnc(-c3c[nH]c4ccccc34)o2)cc1 51.9%
c1ccc2oc(SCc3cn4ccsc4n3)nc2c1 51.9%
Cc1ccc(S(=O)(=O)N(CC(=O)NCc2ccco2)Cc2ccc(F)cc2)cc1 59%
CCOC(=O)c1cc(C(=O)Nc2ccc(C)c(F)c2)nn1C 50.4%
O=C(CNCc1ccco1)Nc1ccc(N2CCCCCC2)cc1 50.6%
O=C(C1CC1)N(Cc1ccco1)c1nc(-c2ccccc2)cs1 52.7%
Cc1ccc(C2C(C#N)=C(N)SC(N)=C2C#N)c(C)c1 57%
Clc1ccc2nc(N3CCN(c4ccccc4)CC3)sc2c1 51.8%
CCOc1ccc(CNC(=O)c2cccc(NC(=O)C3=C(C)OCCS3)c2)cc1 54%
Fc1ccc(/C=N/NC2=Nc3cccc4cccc2c34)cc1 50.9%
Cc1ccc2nc(NC(=O)CN(C)S(=O)(=O)c3cccc4nsnc34)sc2c1 52.9%
O=C1[C@@H]2Cc3c([nH]c4ccccc34)C(c3ccc([N+](=O)[O-])cc3)N2C(=O)CN1C1CC1 (stereo partly drawn) 53.1%
CCCc1ccc(OC(=O)c2ccc(O)cc2Cl)cc1 51.3%

At a glance, 5 of the compounds above.
activation, inconclusive:
C=C1CC(C(=O)N/N=C/c2ccccc2)C1 50.7%
COc1cccc2cc(C(=O)c3ccc([N+](=O)[O-])cc3)oc12 51.5%
COc1cccc(C(=O)Nc2cc(C(=O)NCCc3ccccc3)ccc2Cl)c1 51.9%
O=C1C(C=NCc2ccccn2)=C(O)c2ccccc21 51.8%
COc1ccc(NC(=S)Nc2ccc3nsnc3c2)cc1 56.6%

Following part:

activation, active:
Nc1c(-c2cccc(Cl)c2)cnc2c(-c3ccccc3)cnn12 64.4%
Cc1cccn2cc(-c3ccccc3)nc12 68.6%
CN(C)c1cccc(C(=O)OCCNC(=O)c2cccc(S(=O)(=O)N3CCOCC3)c2)c1 58.8%
Cc1cccc(C(=O)OCC(=O)c2ccc3c(c2)OCO3)c1O 66.3%
Cc1ccc(O)c(NC(=O)c2onc(C)c2Cl)c1 155%
CC(C)c1ccc(/C=C(\c2nc3ccccc3[nH]2)S(=O)(=O)c2ccccc2)cc1 102%
O=C(O)c1ccccc1OC(C(=O)Nc1cc(Cl)cc(Cl)c1)c1ccccc1 (stereo not drawn) 57.7%
Cc1ccc(S(=O)(=O)c2c(N)n(CCC(C)C)c3nc4ccccc4nc23)cc1 109%
Cc1ccc(C2=N/C(=C\N3CCCCC3)C(=O)O2)cc1 62.5%
CN(C)c1ccc(C(=O)/C=C/c2ccccc2)cc1 73.6%
N#C/C(=C\c1ccc([N+](=O)[O-])cc1)c1ccccn1 73.3%
CC(=O)N(C)c1ccc(OCC(O)Cn2c3ccc(Cl)cc3c3cc(Cl)ccc32)cc1 (stereo not drawn) 58.8%
Cc1ccc2c(c1)C(=NC1CCCCC1)c1cc3ccccc3nc1-2 60.1%
COc1cc(-c2nc3cnccn3c2Nc2ccccc2)ccc1O 56.1%
COc1ccc(OC)c(/C=N/Nc2nncn2/N=C/c2cc(OC)ccc2OC)c1 81.2%
